Reference: patent publication EP0450097B1, “BENZOHETEROCYCLIC COMPOUNDS” (OTSUKA PHARMACEUTICAL CO., LTD., priority 1989, dated 1991)
pIC50: −log10 of the molar value. The structures given here were assigned with low confidence; some may be wrong.

By UniProt entry, the sequences of proteins in these tests, tags left out.
UniProt Q00788, whole entry: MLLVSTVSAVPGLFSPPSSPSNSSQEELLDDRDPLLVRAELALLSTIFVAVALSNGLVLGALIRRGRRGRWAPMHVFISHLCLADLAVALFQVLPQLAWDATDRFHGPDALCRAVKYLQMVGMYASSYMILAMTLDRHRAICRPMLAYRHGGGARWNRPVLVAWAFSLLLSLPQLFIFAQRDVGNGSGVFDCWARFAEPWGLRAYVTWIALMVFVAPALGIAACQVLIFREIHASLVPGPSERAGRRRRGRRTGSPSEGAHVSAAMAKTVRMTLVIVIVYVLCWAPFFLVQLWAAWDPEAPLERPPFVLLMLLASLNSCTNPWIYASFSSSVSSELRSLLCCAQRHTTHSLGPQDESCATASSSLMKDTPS
UniProt P30560, whole entry: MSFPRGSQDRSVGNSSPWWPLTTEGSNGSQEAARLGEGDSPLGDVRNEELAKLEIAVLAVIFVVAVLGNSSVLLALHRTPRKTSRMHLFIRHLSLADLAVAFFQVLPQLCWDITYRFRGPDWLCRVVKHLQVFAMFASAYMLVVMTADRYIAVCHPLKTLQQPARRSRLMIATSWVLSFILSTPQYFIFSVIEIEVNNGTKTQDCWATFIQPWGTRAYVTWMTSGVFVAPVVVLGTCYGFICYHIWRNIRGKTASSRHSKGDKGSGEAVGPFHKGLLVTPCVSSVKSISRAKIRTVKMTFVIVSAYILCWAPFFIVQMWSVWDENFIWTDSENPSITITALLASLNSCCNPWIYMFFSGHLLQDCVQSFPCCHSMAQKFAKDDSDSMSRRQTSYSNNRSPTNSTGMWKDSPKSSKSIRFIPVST

Tests used:
[1] = biological target: V₂ receptor (Rattus norvegicus, UniProt Q00788); assay: V₂ receptor binding assay ([³H]-Arg-vasopressin, rat kidney plasma membrane preparations); conditions: 4°C for 3 hours
[2] = biological target: V₁ receptor (Rattus norvegicus, UniProt P30560); assay: V₁ receptor binding assay ([³H]-Arg-vasopressin, rat liver plasma membrane preparations); conditions: 37°C for 10 minutes

pIC50 [1] | pIC50 [2] | Structure (SMILES)
6.64 |  | O=C(c1ccc(NC(=O)C23CC4CC(CC(C4)C2)C3)cc1)N1CCCc2ccccc21
8.22 | 6.80 | Cc1ccccc1C(=O)Nc1ccc(C(=O)N2CCCC3(CO3)c3ccccc32)cc1 (stereo not shown)
6.68 |  | Cc1ccccc1C(=O)Nc1ccc(C(=O)N2CCS(=O)(=O)Cc3ccccc32)cc1
